# Measured values reported in US20070020340A1, “Fish oil products for reducing cholesterol, low density lipoprotein, and hypertension” (priority 2005, published 2007).
# At least one compound was matched to its structure with a doubt left.
# System: men with moderately elevated cholesterol who also suffered from moderate to high hypertension
# Assay: 16-week study of fish oil (EPA/DHA) with or without allicin, oleuropein or Policosanol in eight treatment groups
# Assay type: in vivo, human
# Details: after sixteen weeks of daily treatment
# Description: Eighty men with moderately elevated cholesterol who also suffered from moderate to high hypertension, were assigned to one of eight treatment groups, and followed for 16 weeks. The EPA and DHA administered was from fish oil and in free fatty acid form containing 3 grams of EPA and 2 grams of DHA, administered daily. Group one received fish oil alone. Group two received the same amount of fish oil with 5 mg allicin dissolved in the fish oil. Group three received the same amount of fish oil with 100 mg oleuropein dissolved therein. Group four received the same amount of fish oil with 10 mg of Policosanol dissolved therein. Group five received soft gelatin capsules with sunflower oil rather than fish oil. Group six received 5 mg of allicin dissolved in sunflower oil. Group seven received 100 mg oleuropein dissolved in sunflower oil. Group eight received Policosanol dissolved in sunflower oil. After sixteen weeks of treatment, the results were as follows: • 1. Group one registered 5% lowering of serum triglycerides. There was no change in HDL cholesterol and an 8% increase in LDL. Systolic blood pressure dropped by average of 3% and diastolic blood pressure dropped by average of 2%. • 2. Group two registered a 30% lowering of triglycerides, 12% decrease in LDL, and 8% increase in HDL. Both systolic and diastolic blood pressure dropped by an average of 10% • 3. […]
structure (smiles),measurement,value
"C/C=C1/[C@H](O[C@@H]2O[C@H](CO)[C@@H](O)[C@H](O)[C@H]2O)OC=C(C(=O)OC)[C@H]1CC(=O)OCCc1ccc(O)c(O)c1 [Group seven, oleuropein]",change in HDL cholesterol (in words),no significant change
same,change in LDL (in words),no significant change
